Test results as given in doi:10.1101/2024.06.06.597704.
No constants are given. Whether binding was seen depends on the method and setting. In cells and extracts the contact can be indirect. These calls come from enrichment with a bait or labelling near it, and not all partners need be listed.

B1: ECT1 (protein, UniProt Q3MK94 1-428)
chain: MAGAASSDRLVTSFPLLDTADLFQDLSLGSDANEVPMNFTKGSFQHPYGHAPYGASSHGSERRPNMNAGNLLNGGDSIGSYPWGYIPANYPSGGYPDPRFGYDRNSNHSSFSHLMNPHSSQEVPSFDQLGYNDHLYSNHGLYGLYGNVIDSGHAYGTFGYDSWKLGRGWYPVDGYRKTRSFNHGRGYSDEKADRLNELCRGPRSSDFKNPQVLNSSMLDAMKQDVSAVDLQRYNGENFPESFVKAKFFVIKSYSEDDVHNCIKYGAWSSTPTGNKKLNAAYYEAKENSQECPVYLLFSVNASGQFVGLAEMVGPVDFNKTMEYWQQDKWIGCFPVKWHIIKDIPNSLLRHITLANNENKPVTNSRDTQEVNLEHGTKIIKIFKEYMSKTCILDDYKFYETRQKIIRDKKIKQKKQALDGASGETINLS
B2: ECT2 (protein, UniProt Q9LJE5 1-667)
chain: MATVAPPADQATDLLQKLSLDSPAKASEIPEPNKKTAVYQYGGVDVHGQVPSYDRSLTPMLPSDAADPSVCYVPNPYNPYQYYNVYGSGQEWTDYPAYTNPEGVDMNSGIYGENGTVVYPQGYGYAAYPYSPATSPAPQLGGEGQLYGAQQYQYPNYFPNSGPYASSVATPTQPDLSANKPAGVKTLPADSNNVASAAGITKGSNGSAPVKPTNQATLNTSSNLYGMGAPGGGLAAGYQDPRYAYEGYYAPVPWHDGSKYSDVQRPVSGSGVASSYSKSSTVPSSRNQNYRSNSHYTSVHQPSSVTGYGTAQGYYNRMYQNKLYGQYGSTGRSALGYGSSGYDSRTNGRGWAATDNKYRSWGRGNSYYYGNENNVDGLNELNRGPRAKGTKNQKGNLDDSLEVKEQTGESNVTEVGEADNTCVVPDREQYNKEDFPVDYANAMFFIIKSYSEDDVHKSIKYNVWASTPNGNKKLAAAYQEAQQKAGGCPIFLFFSVNASGQFVGLAEMTGPVDFNTNVEYWQQDKWTGSFPLKWHIVKDVPNSLLKHITLENNENKPVTNSRDTQEVKLEQGLKIVKIFKEHSSKTCILDDFSFYEVRQKTILEKKAKQTQKQVSEEKVTDEKKESATAESASKESPAAVQTSSDVKVAENGSVAKPVTGDVVANGC
B3: ECT3 (protein, UniProt F4K1Z0 1-495)
chain: MANPDHVSDVLHNLSIDPTTKALAPDSETKLQGAYGGNGNDFLLNDELVEATKIGKPSLLSKDGGVTKDKGSNLKKLGYQSAAYNAKGSYGKGAYAYGYYPPAYQYPRHGYTGSYASGKTNLQYQYLTQQGRSAGNGQSYGGYMDNIYSNYGMCGPYTNGYGYGSYGYDSWKYMPNWYAVNNTYKPRNGYHGYGKENIEGLNEMNRGPRAKGFNSQDGSKVMAVSLKEQRVTETEKLSEDVSLLDPKDYNKIDFPETYTEAKFYVIKSYSEDDIHKSIKYSVWSSTPNGNKKLDASYNEAKQKSDGCPVFLLFSVNTSGQFVGLAEMVGPVDFNKTVEYWQQDKWIGCFPVKWHFVKDIPNSSLRHITLENNENKPVTNSRDTQEVKLEQGIKVIKIFKDHASKTCILDDFEFYENRQKIIQERKSKHLQIKKQTLVANADKGVMSKINLVKPQESTTASEDAAALGVAAEVTKESKVVKETELPVEKNAVATAC
B4: ECT4 (protein, UniProt A0A1P8AS03 1-605)
chain: MSTVAPPADQAADVLKKLSLDSKSRTLEIPEPTKKTGVYQYGAMDSNGQVPSFDRSLSPMLPSDALDPSVFYVPNVYQQPYYYGYGSDYTGYTNSESVDMTSGAYGENASLVYPQGYGYAAFPYSPATSPAPQLGGDGQLYGAQQYQYPFPLTASSGPFASSVPASTQSKLSTNKAANSASAGIPKGMNGSAPVKPLNQSALYGNSALGGGLAAGYQDPRYSYDGFYTPVSWHDGSNFSDVQRSVSGSGVASSYSKANNNVPATRNQNSSSNSHYTSMYQPASMTGYAAQGYYDRVSPNKSYGQYGSTVRSGMGYGSSGYGSRTNERGWLNTDNKYRSRGRGNSYFYGNENIDGLNELNRGPRAKGTKATEEVSSEEVKKQTFDESNTEETVTCVLPDREECNRDDFPVEYKDAKFFIIKSYSEDDVHKSIKYNVWASTPNGNKKLDAAYQEAQQKSSGCPVFLFFSVNASGQFIGLAEMKGPVDFNKNIEYWQQDKWTGSFPLKWHILKDVPNSLLKHITLEYNENKPVTNSRDTQEVKLEQGLKVVKIFKEHNSKTCILDDFSFYEARQKTILEKKAKQQQSQKQVWEGKTNDEKPGTVDSTM

Biological target: ALBA4-GFP (Arabidopsis thaliana)
Test: affinity purification with mass spectrometry

binding, binds:
B1
B2
B3
B4

Biological target: T1, ECT2^WT-mCherry (Arabidopsis thaliana) (UniProt Q9LJE5)
T1 sequence: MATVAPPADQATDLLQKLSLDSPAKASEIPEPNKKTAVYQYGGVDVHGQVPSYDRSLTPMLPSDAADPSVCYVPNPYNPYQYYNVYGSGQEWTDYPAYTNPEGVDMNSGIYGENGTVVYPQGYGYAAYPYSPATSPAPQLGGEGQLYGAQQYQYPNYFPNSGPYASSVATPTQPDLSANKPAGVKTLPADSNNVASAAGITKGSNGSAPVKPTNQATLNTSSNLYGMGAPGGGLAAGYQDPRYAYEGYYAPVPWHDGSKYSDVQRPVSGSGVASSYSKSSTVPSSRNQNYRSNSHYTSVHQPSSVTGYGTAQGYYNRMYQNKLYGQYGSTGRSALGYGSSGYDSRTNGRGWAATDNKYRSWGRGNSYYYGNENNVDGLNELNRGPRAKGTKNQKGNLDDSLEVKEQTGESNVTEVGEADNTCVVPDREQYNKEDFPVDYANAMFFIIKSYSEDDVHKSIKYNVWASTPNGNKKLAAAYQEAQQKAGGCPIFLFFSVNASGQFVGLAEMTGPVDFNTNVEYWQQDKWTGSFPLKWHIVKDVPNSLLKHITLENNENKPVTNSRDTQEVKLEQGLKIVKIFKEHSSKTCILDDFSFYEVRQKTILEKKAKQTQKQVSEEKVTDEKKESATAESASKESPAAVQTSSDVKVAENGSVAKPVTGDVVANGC
Test: affinity purification with mass spectrometry

binding, binds:
ALBA5
ALBA2
ALBA1
ALBA4
